Data on two molecules can be found in publication PMC7211012.

Protein sequences, listed by entry. Tags and fused reporters are not part of them.
UniProt A0MES8: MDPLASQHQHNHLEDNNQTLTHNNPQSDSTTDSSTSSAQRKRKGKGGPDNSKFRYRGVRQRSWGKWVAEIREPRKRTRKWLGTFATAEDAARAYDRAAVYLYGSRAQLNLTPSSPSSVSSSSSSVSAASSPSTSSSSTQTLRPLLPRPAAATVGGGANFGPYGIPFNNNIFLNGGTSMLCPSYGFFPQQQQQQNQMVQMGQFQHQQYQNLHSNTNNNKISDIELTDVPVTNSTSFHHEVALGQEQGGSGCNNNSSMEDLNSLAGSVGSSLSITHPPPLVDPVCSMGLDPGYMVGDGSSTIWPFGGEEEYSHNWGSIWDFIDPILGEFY

No constants are given. Whether binding was seen depends on the method and setting. Binding seen in cells or lysates may run through a third protein. Some entries that bind do so weakly or less than the wild type. Where a sequence is shown, tags or fusion partners need not be part of it.

The target in experiment [1] is ABI4 (ABA-insensitive 4), fused to a part of YFP for BiFC (Arabidopsis thaliana) (UniProt A0MES8). Kind of experiment: split reporter; BiFC in Nicotiana benthamiana leaves, 2 days after agroinfiltration; proteins fused to the N-terminal or C-terminal part of YFP; YFP signal by confocal microscopy (488 nm laser, 515/30 filter).
In experiment [2] the target is T1, ABI3 (ABA-insensitive 3), fused to a part of YFP for BiFC (Arabidopsis thaliana) (UniProt Q01593).
T1 sequence: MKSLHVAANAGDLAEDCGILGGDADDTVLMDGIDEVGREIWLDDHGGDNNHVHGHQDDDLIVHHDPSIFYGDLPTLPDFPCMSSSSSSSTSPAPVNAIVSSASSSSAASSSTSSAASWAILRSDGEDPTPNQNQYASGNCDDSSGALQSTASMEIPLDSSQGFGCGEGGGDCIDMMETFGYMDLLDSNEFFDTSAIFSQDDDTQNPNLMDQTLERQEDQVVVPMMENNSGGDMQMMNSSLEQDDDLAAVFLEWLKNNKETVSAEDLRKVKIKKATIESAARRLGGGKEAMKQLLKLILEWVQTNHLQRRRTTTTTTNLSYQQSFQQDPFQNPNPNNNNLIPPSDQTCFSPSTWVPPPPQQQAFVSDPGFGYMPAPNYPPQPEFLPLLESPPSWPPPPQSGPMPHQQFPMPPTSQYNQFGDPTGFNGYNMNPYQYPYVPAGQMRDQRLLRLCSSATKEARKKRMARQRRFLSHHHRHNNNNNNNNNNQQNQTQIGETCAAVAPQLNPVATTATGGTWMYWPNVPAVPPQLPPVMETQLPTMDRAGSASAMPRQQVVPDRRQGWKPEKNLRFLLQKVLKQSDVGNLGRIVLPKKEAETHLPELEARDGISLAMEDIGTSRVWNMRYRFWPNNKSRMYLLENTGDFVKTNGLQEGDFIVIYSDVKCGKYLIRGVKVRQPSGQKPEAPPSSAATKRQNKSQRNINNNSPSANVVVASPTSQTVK
The description is as above.

For experiment [3], the target named is T2, c-myc-ABI3 (Arabidopsis thaliana) (UniProt Q01593).
T2 sequence: T1 sequence
Kind of experiment: pull-down; c-myc-tagged ABI3, ABI4 or ABI5 held on anti-c-myc affinity gel; crude E. coli extracts with GST fusion proteins incubated at 4 °C overnight; 6 washes with RIPA buffer; immunoblot with anti-GST and anti-c-myc; only the target purified. On the technique in general: A western blot detects proteins with antibodies after separation by electrophoresis.

Experiment [4] addresses c-myc-ABI4 (Arabidopsis thaliana) (UniProt A0MES8). The experiment is described as above.

B1: NBR1ΔUBA (NBR1 with a C-terminal deletion of 87 amino acids), fused to a part of YFP for BiFC (domain or fragment, UniProt Q9SB64 1-617)
chain: MESTANALVVKVSYGGVLRRFRVPVKANGQLDLEMAGLKEKIAALFNLSADAELSLTYSDEDGDVVALVDDNDLFDVTNQRLKFLKINVNAGVSTNSAAPESSGSSTPAGMPNPVSKIQKGINDVLMAVPNPMRDTISKVYMDLASKASTSSPVVGEMLDCISKLGQLSIPQESSPCSPVTKPGSSGASLSRDVPSAGGKKDISERTQTGRKPVNLNEPTGAHSKTSGHVPNSSGLGANFNECPFSGSTMNYSCPNPVNLNKHPRRVCHSKKSTNGDYWTSLGVFHKGIRCDGCGVLPITGPRFKSKVKEDYDLCTICYSVMGNEGDYTRMDKPVSVQHLHPFRGPFTQFPNPWLSHPVPRATNGGAPLRCTRPKLDSRFVLDVNVIDGTVVAPSAPFTKIWKMRNSGSLVWPQGTQIVWIGGDRFCNSLSVDLQIPKEGVPIYSELDVKVDFVAPELPGRYISYWRMATSDGAKFGQRVWVLIHVDASLKNSVVNEFHGLNLNASPSLDENFPSEFLGIMNYESAQPGSSSVNPGTVKGTDLEGEVGETQAVEKENLLVGEAHPAIPHGHSPSSSSSSFNMVDFPSMPAVEVLSGGSSSTTKDVPVPLQEDIEKND
On to B1, for which the binding entry in experiment [1] and in experiment [2] was “binds” each time.

B2: GST-NBR1ΔUBA (NBR1 with a C-terminal deletion of 87 amino acids, N-terminal GST) (domain or fragment, UniProt Q9SB64 1-617)
chain: B1 chain
As for B2, the binding result in experiment [3] and in experiment [4] was “binds” each time.
